Data published in patent US20210206855A1 (ADAGENE, published 2021).
Like-named read-outs stand apart in the source and are kept apart here. Results are given in words; binding and its absence hold for the method and conditions named. Some binding calls cover weakened binding; strength is not graded here.

Chains of the proteins cited; added tags and fusions are not shown. Residues count along the entry.
UniProt P42081, residues 24-247: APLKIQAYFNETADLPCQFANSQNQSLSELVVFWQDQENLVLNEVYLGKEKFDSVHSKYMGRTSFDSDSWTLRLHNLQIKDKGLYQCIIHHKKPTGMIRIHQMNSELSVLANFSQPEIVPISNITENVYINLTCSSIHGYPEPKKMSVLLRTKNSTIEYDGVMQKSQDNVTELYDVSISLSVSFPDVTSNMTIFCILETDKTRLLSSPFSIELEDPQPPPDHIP

Assays:
[1] = target: mouse CTLA4 displayed on yeast (mouse) (UniProt P09793); experiment: yeast display, flow cytometry
[2] = target: T1, I108L; experiment: flow cytometry on yeast displaying CTLA4; Normalized FACS Bound, human WT = 1
T1 sequence (CTLA4 displayed on yeast): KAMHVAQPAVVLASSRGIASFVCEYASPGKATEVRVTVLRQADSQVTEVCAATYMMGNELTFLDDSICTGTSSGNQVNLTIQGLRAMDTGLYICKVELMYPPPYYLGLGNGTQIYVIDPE

[3] = target: T2, I108M; experiment: as above
T2 sequence (CTLA4 displayed on yeast): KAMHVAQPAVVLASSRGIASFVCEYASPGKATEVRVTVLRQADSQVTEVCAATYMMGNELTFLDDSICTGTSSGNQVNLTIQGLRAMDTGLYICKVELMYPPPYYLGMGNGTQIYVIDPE

[4] = target: T3, L106D; experiment: as above
T3 sequence (CTLA4 displayed on yeast): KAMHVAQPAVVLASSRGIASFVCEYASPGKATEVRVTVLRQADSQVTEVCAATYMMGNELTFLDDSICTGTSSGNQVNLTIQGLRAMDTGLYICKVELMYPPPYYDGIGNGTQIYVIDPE

[5] = target: T4, L106V; experiment: as above
T4 sequence (CTLA4 displayed on yeast): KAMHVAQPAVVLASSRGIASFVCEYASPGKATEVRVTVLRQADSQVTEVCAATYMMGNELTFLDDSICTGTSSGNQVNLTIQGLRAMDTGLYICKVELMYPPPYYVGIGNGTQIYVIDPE

[6] = target: T5, MH3IQ; experiment: as above
T5 sequence (CTLA4 displayed on yeast): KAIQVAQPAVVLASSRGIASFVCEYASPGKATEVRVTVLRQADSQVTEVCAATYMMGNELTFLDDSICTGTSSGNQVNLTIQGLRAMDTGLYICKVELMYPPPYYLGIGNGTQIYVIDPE

[7] = target: T6, Y105F; experiment: as above
T6 sequence (CTLA4 displayed on yeast): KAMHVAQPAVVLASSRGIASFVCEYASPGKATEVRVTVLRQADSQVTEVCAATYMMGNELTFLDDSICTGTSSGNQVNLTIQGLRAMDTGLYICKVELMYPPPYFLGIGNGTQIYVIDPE

[8] = target: T7, Y105L; experiment: as above
T7 sequence (CTLA4 displayed on yeast): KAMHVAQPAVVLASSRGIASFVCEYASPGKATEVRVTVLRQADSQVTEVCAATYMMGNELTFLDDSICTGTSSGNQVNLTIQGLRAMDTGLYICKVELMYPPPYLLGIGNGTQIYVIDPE

[9] = target: mouse CTLA4 displayed on yeast (mouse) (UniProt P09793); experiment: as above
[10] = target: T1, I108L; experiment: as above; remark: listed apart in the source
[11] = target: T2, I108M; experiment: as above; remark: listed apart in the source
[12] = target: T3, L106D; experiment: as above; remark: listed apart in the source
[13] = target: T4, L106V; experiment: as above; remark: listed apart in the source
[14] = target: T5, MH3IQ; experiment: as above; remark: listed apart in the source
[15] = target: T6, Y105F; experiment: as above; remark: listed apart in the source
[16] = target: T7, Y105L; experiment: as above; remark: listed apart in the source
[17] = target: mouse CTLA4 displayed on yeast (mouse) (UniProt P09793); experiment: as above; remark: listed apart in the source

Measured: binding

human CD86 (epitope mapping reagent) (from UniProt P42081 24-247) (ligand)
binds: [1] | [2] | [3] | [4] | [5] | [6] | [7] | [8] | [9]

human CD80 (recombinant) (from UniProt P33681 35-242) (ligand)
binds: [1] | [2] | [3] | [4] | [5] | [6] | [7] | [8] | [9]

B1: mouse CD86 (ligand, UniProt P42082 24-244, looked up)
chain: VSVETQAYFNGTAYLPCPFTKAQNISLSELVVFWQDQQKLVLYEHYLGTEKLDSVNAKYLGRTSFDRNNWTLRLHNVQIKDMGSYDCFIQKKPPTGSIILQQTLTELSVIANFSEPEIKLAQNVTGNSGINLTCTSKQGHPKPKKMYFLITNSTNEYGDNMQISQDNVTELFSISNSLSLSFPDGVWHMTVVCVLETESMKISSKPLNFTQEFPSPQTYWK
binds: [1] | [10] | [11] | [12] | [13] | [14] | [15] | [16] | [17]
